Experimental data published in patent US9011862B2, “Inhibitors of the nitration of amyloid β peptides and their uses in the diagnosis and treatment of Alzheimer's disease” (Rheinische Friedrich-Wilhelms-Universität Bonn, priority 2009, dated 2015).

Tested on: APP/PS1 mice
Assay: Intracerebral injection, induction of β-amyloidosis
Format: in vivo, mouse
Settings: 2.5 μl intracerebral in 2.5 month old APP/PS1 mice, analysis after 8 weeks

nitrated Aβ1-42: synthetic Aβ1-42 nitrated at tyrosine 10 by peroxynitrite treatment
amyloid seeds localized distant from the injection side: able to induce amyloid seeds
